Reference: PMC5691159 (Nature Communications, 2017)
No constants are given. Whether binding was seen depends on the method and setting. Some entries that bind do so weakly or less than the wild type. Where a sequence is shown, tags or fusion partners need not be part of it.

Sequences of proteins named here, by UniProt entry; tags and fusion partners are left off. Residues count along the entry.
UniProt Q8IFM5, residues 25-526: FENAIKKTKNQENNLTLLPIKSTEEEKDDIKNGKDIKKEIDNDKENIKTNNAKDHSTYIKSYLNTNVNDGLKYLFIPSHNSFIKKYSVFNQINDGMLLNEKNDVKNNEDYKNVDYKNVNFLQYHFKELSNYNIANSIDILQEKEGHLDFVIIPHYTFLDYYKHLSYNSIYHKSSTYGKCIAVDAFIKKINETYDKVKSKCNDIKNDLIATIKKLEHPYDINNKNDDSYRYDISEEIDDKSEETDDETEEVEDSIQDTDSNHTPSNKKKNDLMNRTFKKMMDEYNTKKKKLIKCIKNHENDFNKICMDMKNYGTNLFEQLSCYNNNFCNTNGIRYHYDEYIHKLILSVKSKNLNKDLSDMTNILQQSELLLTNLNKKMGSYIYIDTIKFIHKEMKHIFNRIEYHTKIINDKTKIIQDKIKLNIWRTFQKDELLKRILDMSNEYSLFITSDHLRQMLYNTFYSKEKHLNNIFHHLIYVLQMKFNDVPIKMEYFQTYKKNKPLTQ

What was measured:
[1] = molecular target: PfRh5 protein (P. falciparum) (UniProt Q8IFM5); test: ELISA; bait protein coated overnight at 200 ng in carbonate/bicarbonate buffer pH 9.6; prey protein 100, 200, 400, 800 ng in 100 µl binding buffer (50 mM HEPES, 250 mM potassium acetate, 5 mM magnesium acetate, pH 8.0), 1 h at 37 °C; prey detected by antibody; both purified
[2] = molecular target: PfRh5 protein (P. falciparum) (UniProt Q8IFM5); test: co-IP; Pierce Co-IP kit: antibody against the bait protein immobilised on coupling resin; mixture of bait and prey (PfRhopH3-C) proteins, 8 µg each, up to 4 h at 4 °C; prey detected by western blot; both purified

B1: recombinant PfRhopH3-C protein (aa 617–865) with C-terminal hexa-Histidine tag (domain or fragment)
chain: QLSCFYPKEFELIKSRMIHPNIVDRILKGIDNLMKSTRYDKMRTMYLDFESSDIFSREKVFTALYNFDSFIKTNEQLKKKNLEEISEIPVQLETSNDGIGYRKQDVLYETDKPQTMDEASYEETVDEDAHHVNEKQHSAHFLDAIAEKDILEEKTKDQDLEIELYKYMGPLKEQSKSTSAASTSDEISGSEGPSTESTSTGNQGEDKTTDNTYKEMEELEEAEGTSNLKKGLEFYKSSLKLDQLDKEKP
[1]
  binding: binds
[2]
  binding: binds
